According to article PMC7819943, “Rice protein-binding microarrays: a tool to detect cis-acting elements near promoter regions in rice”:
This is one part of the list.

Each sequence was assayed against T1, OsSMF1 (Oryza sativa, UniProt Q6ZLB0 1-436) (assay: protein-binding microarray (RPBM); PBS, 2% BSA, 51.3 ng/ul salmon testes DNA, 50 uM zinc acetate, 200 nM TF, 25 C, 1 h; high values mean tight binding). Settings: protein: recombinant; tags: N-terminal polyhistidine and DsRed monomer fusion (pET32a); chain copies: 2; label: CyDye5-dUTP incorporated in the synthesized complementary strand; 3' TTTTT single-stranded linker to array surface; dsDNA, one strand shown.
T1 sequence: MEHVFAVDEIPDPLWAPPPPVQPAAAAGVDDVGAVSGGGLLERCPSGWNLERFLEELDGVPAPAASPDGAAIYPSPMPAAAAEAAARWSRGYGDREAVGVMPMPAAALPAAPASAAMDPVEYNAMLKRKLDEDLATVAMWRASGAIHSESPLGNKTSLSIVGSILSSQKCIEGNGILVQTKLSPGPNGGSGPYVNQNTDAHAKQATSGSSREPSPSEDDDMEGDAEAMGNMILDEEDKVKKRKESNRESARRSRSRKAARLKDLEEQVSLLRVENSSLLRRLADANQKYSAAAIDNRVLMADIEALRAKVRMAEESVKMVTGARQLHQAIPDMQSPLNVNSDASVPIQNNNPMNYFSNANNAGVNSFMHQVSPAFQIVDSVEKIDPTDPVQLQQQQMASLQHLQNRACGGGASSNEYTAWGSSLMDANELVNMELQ
Summary of the method: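 The binding signal for each feature is its fluorescence intensity in arbitrary units. An Axon 4000B scanner was used to read a custom Agilent array that had been made double-stranded with Cy5-dUTP primer extension, blocked with 2% BSA, incubated at 25 °C for 1 h with 200 nM protein in PBS, 2% BSA, salmon testes DNA and 50 µM zinc acetate, and washed. The protein was an N-terminal polyhistidine–DsRed transcription factor fusion from E. coli BL21-CodonPlus, purified on Ni–NTA.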

Sequence	binding signal
GCCAAATTGTCACCACTTAAGTTGGTGGGTGAGGTTTAACCGGAGTCACCTAGTGCAG	3140 fluorescence intensity (a.u.)
GTGCCTACAGATAGAAGTAGGTGTCCCATCATCACTCCATCGGAGTCACCTAGTGCAG	3510 fluorescence intensity (a.u.)
TCAAAGTTGTAGACAATCACACGTGTGATGACTTGCGACACGGAGTCACCTAGTGCAG	7890 fluorescence intensity (a.u.)
CCAGGAGGCAAGTAGGCAACGTCAGAGAATCCAAGCAGAGCGGAGTCACCTAGTGCAG	3450 fluorescence intensity (a.u.)
ACGGGCCGTGCTTGGGCCAGCGGCTCGGCACGTGGGCCGGCGGAGTCACCTAGTGCAG	3480 fluorescence intensity (a.u.)
TTTGATGAGTTGACTTCGTTGACCCAACAGTGATGGCCGACGGAGTCACCTAGTGCAG	38700 fluorescence intensity (a.u.)
TCGGCGGTCGTGGAGGTGGTGGCAGGCGGTCGTGGCGGAGCGGAGTCACCTAGTGCAG	3990 fluorescence intensity (a.u.)
CTCAAATGTGTGTAGCACAAGTGTGACGTATGCACGTGTACGGAGTCACCTAGTGCAG	7300 fluorescence intensity (a.u.)
CGATCTGTAGTACGTTCCAAACTCTCGTCTCATGTCGTGTCGGAGTCACCTAGTGCAG	3840 fluorescence intensity (a.u.)
ACCCGTTCTCACACTTGTCAATTTGTCATTCCAAATATGCCGGAGTCACCTAGTGCAG	3290 fluorescence intensity (a.u.)
GGGGAGGCGGAAGGCGGTGCGGGGAGGCGGCGCTCGCTGACGGAGTCACCTAGTGCAG	3870 fluorescence intensity (a.u.)
ATACCGGTGCGTTACAACGAGGTGAATGTTATTTTAATTTCGGAGTCACCTAGTGCAG	25200 fluorescence intensity (a.u.)
TACTCACTCCCCTCAACTGCCAATTCCCCTCTCTCTCCTCCGGAGTCACCTAGTGCAG	3560 fluorescence intensity (a.u.)
AGAGGGATTACGAACTCGCAATGTCTGTTTGTACGATGCGCGGAGTCACCTAGTGCAG	23700 fluorescence intensity (a.u.)
TAATCCTGTCACGTTTGCAGCCTGCCATCAACTGAAATTGCGGAGTCACCTAGTGCAG	3330 fluorescence intensity (a.u.)
GATGTTAATGTGCGTATGTGTCACATACCTGAAATGTTAGCGGAGTCACCTAGTGCAG	3650 fluorescence intensity (a.u.)
TCATGCGCCCAGCTGCACTGAAGTCAACTCCAACCCATGTCGGAGTCACCTAGTGCAG	31200 fluorescence intensity (a.u.)
CTCCGCAGAAGCAGCAGAACCACCACCACGCGGCGCCCTTCGGAGTCACCTAGTGCAG	3340 fluorescence intensity (a.u.)
TTCACAAAACATGGTGCCATCTTGCCAACACAACCCTTGTCGGAGTCACCTAGTGCAG	3200 fluorescence intensity (a.u.)
CTCTCGAGCATGAAAACGGGCCAAAATTTACCAGGTTTACCGGAGTCACCTAGTGCAG	3560 fluorescence intensity (a.u.)
GCGGCGAACATCCAGCTGTCGTCATCGAGCGACCTGACCTCGGAGTCACCTAGTGCAG	5420 fluorescence intensity (a.u.)

Sequence	binding signal
TGTAGCTAGTGGAATTCAATTTGGTGATGGTTCAAATAAACGGAGTCACCTAGTGCAG	20600 fluorescence intensity (a.u.)
CCTACGACTCATTACATCCACACGCAAGCAAAATCTCACTCGGAGTCACCTAGTGCAG	5150 fluorescence intensity (a.u.)
AAGTACACAGAGTTCAGATTTATCATCGTCGCCGACGGGGCGGAGTCACCTAGTGCAG	14200 fluorescence intensity (a.u.)
GTGAGGCGCCTTCTGGAAAATTCCAGCGCTGACAGATGGGCGGAGTCACCTAGTGCAG	28600 fluorescence intensity (a.u.)
AGAGAGCCATAGGGTTTGTTCACTTTATTATCAAAATAATCGGAGTCACCTAGTGCAG	27200 fluorescence intensity (a.u.)
CGACGCTTCCGTGGCTCCTCCTCCTCGCGCCCTCGCTGCGCGGAGTCACCTAGTGCAG	4010 fluorescence intensity (a.u.)
GCACCAGCGGTCCTCAAACTTGTAAGGGTGTGTCATCTAGCGGAGTCACCTAGTGCAG	3660 fluorescence intensity (a.u.)
GACCTCGCCTGCCGCCATCGTCGCTGACATCATCACCATCCGGAGTCACCTAGTGCAG	13700 fluorescence intensity (a.u.)
CAACCAGCGTGATAGTTTTGTCCTGTCACGTGGCGTGACCCGGAGTCACCTAGTGCAG	5520 fluorescence intensity (a.u.)
ATATATGGTATAGTATCTCTCGAGTCACACTTGACAGTGACGGAGTCACCTAGTGCAG	31500 fluorescence intensity (a.u.)
TCGGGCCCACTAAAACTTCGTCATCACGGATACACTATTTCGGAGTCACCTAGTGCAG	4780 fluorescence intensity (a.u.)
GAGGAGGAGGAACTCACCGATCTGGGCGGGTGCAGCGCAACGGAGTCACCTAGTGCAG	3200 fluorescence intensity (a.u.)
GAAGATGATGACATCCGACATGCCTATGATTTTCACTCGACGGAGTCACCTAGTGCAG	3520 fluorescence intensity (a.u.)
GGCTGTGACAGCTTGCGCCAGTTTGGTTCGGAACAATTTGCGGAGTCACCTAGTGCAG	3360 fluorescence intensity (a.u.)
GGGAGTGGGCCGGCCCAGCTGAGAGGAGGGCGGGCGCGCGCGGAGTCACCTAGTGCAG	3180 fluorescence intensity (a.u.)
TCCCGTGTTCTTGTTCTTCTCTGGTGATCATCATCATCATCGGAGTCACCTAGTGCAG	3980 fluorescence intensity (a.u.)
GTAGCCAAGTACATTGTCGGTGTCTGCCGTCTGCGTGGCACGGAGTCACCTAGTGCAG	6760 fluorescence intensity (a.u.)
TTCTACGGACCATTCCATATTGACACGTAGCCTGATGCCTCGGAGTCACCTAGTGCAG	9950 fluorescence intensity (a.u.)
TCCTATACTTAATTACATGACATGTCCTAACAGAATTCTTCGGAGTCACCTAGTGCAG	3320 fluorescence intensity (a.u.)
AAACAAGGACAATTAATTAAAAGGACTAAAGGGATGAAAACGGAGTCACCTAGTGCAG	36300 fluorescence intensity (a.u.)
AAGTAGCAAGTAGAGAAGCTGCATTGTCATAGCAAAACCGCGGAGTCACCTAGTGCAG	3530 fluorescence intensity (a.u.)

Not a retest: an excerpt of the list.
Sequence	binding signal
TGTAGCTAGTGGAATTCAATTTGGTGATGGTTCAAATAAACGGAGTCACCTAGTGCAG	20600 fluorescence intensity (a.u.)
CCTACGACTCATTACATCCACACGCAAGCAAAATCTCACTCGGAGTCACCTAGTGCAG	5150 fluorescence intensity (a.u.)
AAGTACACAGAGTTCAGATTTATCATCGTCGCCGACGGGGCGGAGTCACCTAGTGCAG	14200 fluorescence intensity (a.u.)
GTGAGGCGCCTTCTGGAAAATTCCAGCGCTGACAGATGGGCGGAGTCACCTAGTGCAG	28600 fluorescence intensity (a.u.)
